Measurements as given in PMC3663501.
No constants are given. Whether binding was seen depends on the method and setting. Sequences can lack the tags named with a protein.

Amino acid sequences for entries named in this document (tags omitted). A change or cut given only in a name is not applied to a line headed by its entry. Chains listed by the source or under a name are the forms on record and can include a tag or linker.
220-kDa ankyrin-B-GFP (Q01484-2, form named): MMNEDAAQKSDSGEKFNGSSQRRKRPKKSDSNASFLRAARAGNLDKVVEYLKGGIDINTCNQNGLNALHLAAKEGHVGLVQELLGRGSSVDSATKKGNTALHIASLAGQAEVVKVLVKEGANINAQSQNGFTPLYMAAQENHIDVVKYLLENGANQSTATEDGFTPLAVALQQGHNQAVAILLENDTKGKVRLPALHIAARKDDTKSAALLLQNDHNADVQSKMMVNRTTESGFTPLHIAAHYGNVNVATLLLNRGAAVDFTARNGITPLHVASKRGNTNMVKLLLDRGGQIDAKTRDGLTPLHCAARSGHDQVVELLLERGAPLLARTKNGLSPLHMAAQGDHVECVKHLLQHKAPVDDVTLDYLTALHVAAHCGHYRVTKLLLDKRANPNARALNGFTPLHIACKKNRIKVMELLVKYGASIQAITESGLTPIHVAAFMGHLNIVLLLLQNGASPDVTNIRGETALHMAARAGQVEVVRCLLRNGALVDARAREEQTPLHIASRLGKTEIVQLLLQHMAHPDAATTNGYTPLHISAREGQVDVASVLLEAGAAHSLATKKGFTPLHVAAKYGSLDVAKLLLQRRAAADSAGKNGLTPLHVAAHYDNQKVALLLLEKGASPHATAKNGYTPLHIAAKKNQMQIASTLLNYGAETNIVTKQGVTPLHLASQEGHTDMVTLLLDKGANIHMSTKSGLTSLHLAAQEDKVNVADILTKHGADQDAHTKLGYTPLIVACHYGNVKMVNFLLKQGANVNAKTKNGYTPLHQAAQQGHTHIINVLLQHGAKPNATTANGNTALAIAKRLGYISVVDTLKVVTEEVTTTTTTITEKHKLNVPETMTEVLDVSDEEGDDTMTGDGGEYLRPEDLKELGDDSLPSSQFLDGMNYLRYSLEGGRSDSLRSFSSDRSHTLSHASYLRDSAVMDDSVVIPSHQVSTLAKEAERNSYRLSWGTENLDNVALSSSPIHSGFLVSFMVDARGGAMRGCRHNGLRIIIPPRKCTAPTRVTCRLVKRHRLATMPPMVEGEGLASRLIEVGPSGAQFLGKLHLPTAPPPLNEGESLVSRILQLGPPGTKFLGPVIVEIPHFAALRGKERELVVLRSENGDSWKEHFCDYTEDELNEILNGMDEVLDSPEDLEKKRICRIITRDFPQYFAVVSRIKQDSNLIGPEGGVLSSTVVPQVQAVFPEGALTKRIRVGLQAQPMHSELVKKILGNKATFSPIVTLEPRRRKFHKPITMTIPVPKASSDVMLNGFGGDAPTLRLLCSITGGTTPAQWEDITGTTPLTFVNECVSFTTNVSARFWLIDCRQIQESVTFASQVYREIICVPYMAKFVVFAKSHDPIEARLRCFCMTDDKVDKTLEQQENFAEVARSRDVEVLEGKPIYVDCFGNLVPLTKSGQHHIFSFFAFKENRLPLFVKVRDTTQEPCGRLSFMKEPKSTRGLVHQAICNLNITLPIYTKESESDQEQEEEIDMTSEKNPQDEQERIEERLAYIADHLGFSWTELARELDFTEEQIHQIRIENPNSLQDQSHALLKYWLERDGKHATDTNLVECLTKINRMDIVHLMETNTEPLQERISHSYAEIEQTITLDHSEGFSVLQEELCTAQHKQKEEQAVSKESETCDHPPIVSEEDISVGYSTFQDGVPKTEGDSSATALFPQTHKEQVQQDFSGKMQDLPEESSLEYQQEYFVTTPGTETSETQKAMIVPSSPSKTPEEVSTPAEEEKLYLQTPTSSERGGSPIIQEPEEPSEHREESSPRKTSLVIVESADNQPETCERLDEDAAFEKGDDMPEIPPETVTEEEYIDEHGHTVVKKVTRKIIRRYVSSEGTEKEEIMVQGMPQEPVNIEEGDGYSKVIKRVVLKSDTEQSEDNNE

Target: T1, HA-tagged neurofascin 186 (UniProt P97685)
T1 sequence: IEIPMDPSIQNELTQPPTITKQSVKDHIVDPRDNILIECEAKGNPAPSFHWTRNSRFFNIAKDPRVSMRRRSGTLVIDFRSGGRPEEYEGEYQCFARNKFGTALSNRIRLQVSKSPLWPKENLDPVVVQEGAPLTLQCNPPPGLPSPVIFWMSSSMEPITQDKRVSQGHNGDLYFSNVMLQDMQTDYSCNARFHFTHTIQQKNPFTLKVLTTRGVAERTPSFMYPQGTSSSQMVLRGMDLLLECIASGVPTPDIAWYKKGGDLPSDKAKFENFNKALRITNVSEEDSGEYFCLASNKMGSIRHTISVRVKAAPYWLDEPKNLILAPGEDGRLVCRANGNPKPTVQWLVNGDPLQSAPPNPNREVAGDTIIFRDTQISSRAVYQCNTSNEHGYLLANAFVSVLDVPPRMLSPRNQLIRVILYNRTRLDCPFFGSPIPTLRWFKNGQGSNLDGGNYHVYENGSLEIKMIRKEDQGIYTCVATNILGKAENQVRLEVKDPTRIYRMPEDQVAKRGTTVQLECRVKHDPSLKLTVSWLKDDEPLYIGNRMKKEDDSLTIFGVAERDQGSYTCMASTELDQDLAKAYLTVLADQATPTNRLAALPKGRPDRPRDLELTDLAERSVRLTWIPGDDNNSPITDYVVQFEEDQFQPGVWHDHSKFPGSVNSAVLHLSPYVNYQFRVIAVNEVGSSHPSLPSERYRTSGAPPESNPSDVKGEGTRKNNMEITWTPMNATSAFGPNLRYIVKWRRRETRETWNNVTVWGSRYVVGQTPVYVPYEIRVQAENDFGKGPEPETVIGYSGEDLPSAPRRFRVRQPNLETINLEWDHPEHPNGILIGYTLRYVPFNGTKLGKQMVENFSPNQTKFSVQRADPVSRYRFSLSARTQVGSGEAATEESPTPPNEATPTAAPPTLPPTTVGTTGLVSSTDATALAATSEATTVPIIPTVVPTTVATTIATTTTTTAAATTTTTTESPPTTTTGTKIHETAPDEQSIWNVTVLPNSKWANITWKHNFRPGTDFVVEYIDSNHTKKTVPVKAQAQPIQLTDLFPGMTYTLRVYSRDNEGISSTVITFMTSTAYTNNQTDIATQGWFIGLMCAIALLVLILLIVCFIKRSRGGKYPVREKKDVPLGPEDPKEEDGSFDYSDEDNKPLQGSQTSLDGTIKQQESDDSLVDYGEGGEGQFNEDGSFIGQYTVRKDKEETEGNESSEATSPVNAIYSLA
Experiment: membrane recruitment assay (immunofluorescence of cotransfected cells); HEK293 cells cotransfected with HA-tagged neurofascin-186 or E-cadherin and GFP-tagged ankyrin; fixed 24 h later; read-out is recruitment of ankyrin-GFP from the cytoplasm to the plasma membrane

220-kDa ankyrin-B-GFP (from UniProt Q01484-2 1-1872)
binding: no binding
